Assay results reported in patent publication US20240270861A1.
No constants are given. Whether binding was seen depends on the method and setting. Some entries that bind do so weakly or less than the wild type.

Sequences of proteins named here, by UniProt entry; tags and fusion partners are left off. A change or cut given only in a name is not applied to a line headed by its entry.
UniProt Q96RJ3: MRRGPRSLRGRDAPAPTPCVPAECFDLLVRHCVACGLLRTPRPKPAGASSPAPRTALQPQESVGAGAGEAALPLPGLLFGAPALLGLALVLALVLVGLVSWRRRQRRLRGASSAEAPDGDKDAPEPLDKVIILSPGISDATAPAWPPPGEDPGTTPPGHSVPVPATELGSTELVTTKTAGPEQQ

Biological target: hBAFF-R-hFc-His fusion protein (human) (UniProt Q96RJ3)
Experiment: yeast display, off-rate challenge with non-biotinylated hBAFF-R-hFc-His; bound before the challenge

B1: ianalumab-based scFv benchmark control displayed on yeast (scFv, V domains shown)
VH: QVQLQQSGPGLVKPSQTLSLTCAISGDSVSSNSAAWGWIRQSPGRGLEWLGRIYYRSKWYNSYAVSVKSRITINPDTSKNQFSLQLNSVTPEDTAVYYCARYQWVPKIGVFDSWGQGTLVTVSS
VL: DIVLTQSPATLSLSPGERATLSCRASQFILPEYLSWYQQKPGQAPRLLIYGSSSRATGVPARFSGSGSGTDFTLTISSLEPEDFAVYYCQQFYSSPLTFGQGTKVEIK
With B1 the binding was “binds”.
